PubChem BioAssay AID652272 – Drosophila RNAi Screening Center – 2013
Assay: 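Finding fly genes that regulate Hedgehog signal transduction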 (primary screen). System: Drosophila clone 8 (Cl8) cells. Reagents: long dsRNA against Drosophila genes. Detection: 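Firefly light from a Hedgehog-responsive ptc promoter reporter and Renilla reference light, both read on a plate reader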. Reading the numbers: firefly Hh reporter signal: higher = more ptc reporter light; Renilla reference signal: higher = more Renilla control light. Hit rule: 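Hit when the z-score averaged over two replicates is under -2 or over +3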. Meaning of the calls: active = hit: reporter lowered or raised; inactive = not a hit.
In all, the deposit lists about 21,000 reagents; shown is a random part of those with a known target gene and a result. In the full data, 503 (2.4%) are marked active. 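Raw plate light values, not normalised; calls rest on replicate z-scores that were not deposited; hits include reporter decreases as well as increases.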 Entries without a mark were called inactive. The numbers tell different reagents against one gene apart. Names joined by + are all predicted targets of the reagent. Not given: the amount of reagent, the time to read-out.

The first 5 records, to show the layout:
| predicted target | reagent no. | firefly Hh reporter signal, replicate 1 | firefly Hh reporter signal, replicate 2 | firefly Hh reporter signal, replicate 3 | Renilla reference signal, replicate 1 | Renilla reference signal, replicate 2 |
| --- | --- | --- | --- | --- | --- | --- |
| CG33271 (GeneID 2768972) | 1 | 58749 | 48320 | 39911 | 6176 | 3421 |
| comm3 (GeneID 39696) | 1 | 99818 | – | – | 7321 | 2954 |
| comm3 (GeneID 39696) | 2 | 1.04e5 | – | – | 4584 | 3223 |
| comm3 (GeneID 39696) | 3 | 1.08e5 | – | – | 6407 | 3511 |
| Neu2 (GeneID 40375) | 1 | 1.18e5 | 1.22e5 | – | 4429 | 3659 |

The listing, repeating the preview:
| predicted target | reagent no. | firefly Hh reporter signal, replicate 1 | firefly Hh reporter signal, replicate 2 | firefly Hh reporter signal, replicate 3 | Renilla reference signal, replicate 1 | Renilla reference signal, replicate 2 |
| --- | --- | --- | --- | --- | --- | --- |
| CG33271 (GeneID 2768972) | 1 | 58749 | 48320 | 39911 | 6176 | 3421 |
| comm3 (GeneID 39696) | 1 | 99818 | – | – | 7321 | 2954 |
| comm3 (GeneID 39696) | 2 | 1.04e5 | – | – | 4584 | 3223 |
| comm3 (GeneID 39696) | 3 | 1.08e5 | – | – | 6407 | 3511 |
| Neu2 (GeneID 40375) | 1 | 1.18e5 | 1.22e5 | – | 4429 | 3659 |
| CG17637 (GeneID 40275) | 1 | 97040 | 77408 | – | 3232 | 2204 |
| ATPsynE (GeneID 41745) | 1 | 1.61e5 | 81948 | – | 5824 | 3644 |
| CG34196 (GeneID 5740437) | 1 | 1.39e5 | 1.86e5 | – | 4032 | 8226 |
| CG31204 (GeneID 318625) | 1 | 84604 | 1.70e5 | – | 1314 | 6925 |
| CG18180 (GeneID 39125) | 1 | 79063 | 63226 | – | 3088 | 2872 |
| CG7916 (GeneID 34800) | 1 | 98487 | 44101 | – | 2716 | 4122 |
| mTerf5 (GeneID 42182) | 1 | 1.79e5 | 1.08e5 | – | 6613 | 4441 |
| CG32642 (GeneID 318137) | 1 | 5.05e5 | 1.81e5 | – | 29936 | 4306 |
| lncRNA:CR32553 (GeneID 318087) | 1 | 6.24e5 | 2.25e5 | – | 37403 | 5130 |
| mei-9 (GeneID 31373) | 1 | 75990 | 1.68e5 | – | 2512 | 4946 |
| CLIP-190 (GeneID 35042) | 1 | 78192 | 55760 | – | 3286 | 1629 |
| CG43088 (GeneID 12797977) | 1 | 7.04e5 | 3.65e5 | – | 41624 | 8544 |
| Tmem43 (GeneID 38881) | 1 | 23211 | 54688 | – | 4752 | 4880 |
| CG9837 (GeneID 41057) | 1 | 93589 | 1.23e5 | – | 4114 | 3280 |
| sns (GeneID 44097) | 1 | 22219 (active) | 5149 | – | 776 | 816 |
| sns (GeneID 44097) | 2 | 84498 | 51587 | – | 1476 | 4880 |
| sns (GeneID 44097) | 3 | 7.35e5 | 1.20e5 | – | 5216 | 5216 |
| sns (GeneID 44097) | 4 | 1.26e5 | 66038 | – | 3384 | 5508 |
| sns (GeneID 44097) | 5 | 95994 | 57703 | – | 2453 | 4962 |
| sns (GeneID 44097) | 6 | 71479 (active) | 18216 | – | 2404 | 2240 |
| Dh44-R2 (GeneID 36368) | 1 | 1.10e5 | 59660 | – | 2976 | 4315 |
| Dh44-R2 (GeneID 36368) | 2 | 1.36e5 | 42068 | – | 3472 | 4029 |
| obst-E (GeneID 33806) | 1 | 1.12e5 | 59960 | – | 3424 | 2469 |
| colt (GeneID 33470) | 1 | 58373 | 74833 | – | 2903 | 3204 |
| CG12106 (GeneID 31856) | 1 | 88384 | 72598 | – | 2165 | 1761 |
| Mettl14 (GeneID 34138) | 1 | 63603 | 76940 | – | 2761 | 3001 |
| sut2 (GeneID 44269) | 1 | 83058 | 55785 | – | 3456 | 2513 |
| CG5068 (GeneID 39032) | 1 | 74089 | 66875 | – | 3082 | 3010 |
| Sac1 (GeneID 38137) | 1 | 1.01e5 | 92368 | – | 5239 | 3729 |
| Bap55 (GeneID 36956) | 1 | 75863 | 56477 | – | 3825 | 2890 |
| Ssl1 (GeneID 40509) | 1 | 1.51e5 | 1.04e5 | – | 4867 | 3544 |
| Archease (GeneID 42551) | 1 | 6.46e5 | 1.76e5 | – | 31683 | 2797 |
| CG10984 (GeneID 39446) | 1 | 89344 | 73067 | – | 4249 | 3680 |
| E(spl)m7-HLH (GeneID 43160) | 1 | 4.69e5 | 92275 | – | 27635 | 3126 |
| hoe2 (GeneID 33700) | 1 | 1.17e5 | 52752 | – | 2998 | 5146 |
| p23 (GeneID 41173) | 1 | 1.41e5 | 89505 | – | 5361 | 2999 |
| CG31678 (GeneID 35327) | 1 | 1.01e5 | 82460 | – | 4080 | 3035 |
| CG31678 (GeneID 35327) | 2 | 80288 | 48136 | – | 2321 | 5216 |
| CG14262 (GeneID 43286) | 1 | 88389 | 97900 | – | 2888 | 3005 |
| Gle1 (GeneID 35849) | 1 | 81682 | 33765 | – | 2821 | 1200 |
| CG13365 (GeneID 31005) | 1 | 1.32e5 | 2.94e5 | – | 4753 | 11436 |
| eIF4H1 (GeneID 49809) | 1 | 59168 | 2.05e5 | – | 1265 | 7082 |
| mrt (GeneID 43291) | 1 | 73731 | 97714 | – | 2569 | 3559 |
| CG32590 (GeneID 318103) | 1 | 93612 | 2.06e5 | – | 2757 | 8560 |
| Got2 (GeneID 33373) | 1 | 95780 | 83526 | – | 4557 | 3624 |
| CG8840 (GeneID 33557) | 1 | 1.03e5 | 67290 | – | 2368 | 6209 |
| CG5151 (GeneID 39772) | 1 | 59178 | – | – | 2295 | 1974 |
| Oxp (GeneID 37002) | 1 | 83093 | 44955 | – | 2160 | 3304 |
| CG3808 (GeneID 40074) | 1 | 68950 | 1.38e5 | – | 2019 | 3671 |
| tap (GeneID 39935) | 1 | 1.28e5 | – | – | 2186 | 3549 |
| Pal1 + Pdrg1 | 1 | 1.02e5 | 77862 | – | 2641 | 5914 |
| Prosbeta4 (GeneID 34999) | 1 | 44180 (active) | 35084 | – | 1888 | 4124 |
